Results from patent US11717561B2, “Multimodal antimicrobial therapy” (Longhorn Vaccines and Diagnostics, LLC, priority 2013, dated 2023).

System: anti-lysostaphin antibodies
Assay: Binding of immunised mouse sera to lysostaphin-coated plates
Format: in vivo
Settings: gamma-specific detection; sera of mice immunised s.c. with 10 μg recombinant or natural lysostaphin, no adjuvant

Substance	Binding of anti-lysostaphin antibodies (immunised mouse sera) to the coating lysostaphin
Lysostaphin: natural lysostaphin from S. staphylolyticus (Sigma Cat L7386), a 27 kD glycylglycine endopeptidase	markedly higher binding
Recombinant Lysostaphin: recombinant simulans lysostaphin produced in E. coli (Sigma-Aldrich)	stronger
